Assay results as given in PubChem BioAssay AID504444 (National Center for Advancing Translational Sciences (NCATS), 2011).
Screen size: about 360,000 compounds; about 7,500 (2.1%) were called active. Inconclusive means that the source gave no clear call. Such entries were picked first, then a sample of the others. Calls follow the shape of the dose curve; as a rule, active = well fitted inhibition curve with a large enough effect; inconclusive = small, poorly fitted or top-dose-only effect, or effect the other way; inactive = flat fitted curve, though single readings scatter. Potencies beside an inconclusive call are fits to weak or partial responses and may not hold up.

Experiment: Nrf2 qHTS screen for inhibitors; also: nearly all actives have a fitted effect of over 60% in size
Conditions: A549 ARE-Fluc reporter, luciferase luminescence, 18-24 h; series mostly up to 46 µM
In short: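 Cells were seeded and rested 2 h, then exposed to compounds for 18-24 h. CellTiter-Fluor was read first as a viability measure. BugLite was added 15 min before the final luminescent read of ARE-luciferase activity in A549 cells.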
Potency is read from the fitted curve at half-maximal effect.

SMILES	Potency
Cn1c(=O)c2c(nc(N3CCOCC3)n2CCNC2=NCCC2)n(C)c1=O	inconclusive: 14.6 µM [activator, partial curve, poor fit]
C=CCc1ccc(OCCOc2cccc(/C=N/n3cnnc3)c2)c(OC)c1	inconclusive: 23.1 µM [falling, single point]
Nc1cc(OCc2ccccc2)ccc1OCc1ccccc1	inconclusive: 18.4 µM [activator, partial curve, poor fit]
Cc1ccccc1Oc1cc(-n2ncc(Cl)c(Cl)c2=O)ncn1	inconclusive: 29.1 µM [falling, single point]
Cn1c(=O)n(C)c2cc([N+](=O)[O-])c(N3CCN(C(=O)c4ccc(Cl)cc4)CC3)cc21	inconclusive: 0.731 µM [falling, full curve]
O=C(Cc1ccc(Cl)cc1)Nc1ccc2oc(-c3ccncc3)nc2c1	inconclusive: 1.46 µM [falling, full curve]
COc1ccc(CC(=O)NNC(=S)NC(=O)c2cccnc2)cc1	inconclusive: 25.9 µM [activator, single point]
CCCc1cc2c(=O)c(-c3ccccn3)coc2cc1OC	inconclusive: 16.4 µM [activator, single point]
CC(=O)Nc1ccc(-c2nc3ccccc3o2)cc1	inconclusive: 2.59 µM [falling, full curve]
COc1ccc(-c2noc(CCC(=O)NCc3cccnc3)n2)cc1OC	inconclusive: 6.51 µM [activator, single point]
CCOc1ccc(C(=O)Nc2cccc(C(=O)O)c2C)cc1Cl	inconclusive: 1.84 µM [activator, partial curve, poor fit]
Cc1nc(N2CCCC2)c2c(C(=O)Nc3ccc(Br)cc3F)c(C)oc2n1	inactive
CN(C)S(=O)(=O)c1cccc(C(=O)OCC(=O)c2ccc3c(c2)NC(=O)CO3)c1	inconclusive: 29.1 µM [falling, single point]
CC(NC(=O)C(C)(C)C)C(c1cccs1)N1CCOCC1 (stereo unspecified)	inactive
Cc1cc(C)n2nc(SCC(=O)N3CCN(c4ccc(F)cc4)CC3)nc2n1	inactive
COc1ccccc1C(=O)Nc1ccc(NC(=O)c2cccs2)cc1	inconclusive: 18.4 µM [falling, partial curve, poor fit]
Cc1ccccc1C(=O)Nc1cc(NC(=O)c2ccccc2C)cc(C(=O)O)c1	inconclusive: 0.231 µM [falling, full curve]
O=C(CCN1C(=O)c2ccccc2S1(=O)=O)Nc1cccc2ccccc12	inconclusive: 2.31 µM [activator, full curve]
COc1ccc([N+](=O)[O-])cc1NC(=O)C(C)OC(=O)/C=C/c1ccco1 (stereo unspecified)	inactive
COc1ccc(-c2nc(CSCC(=O)NC3CCCC3)c(C)o2)cc1OC	inactive
CCOc1ccccc1NC(=O)COC(=O)c1cn(CC)c2nc(C)ccc2c1=O	inactive
O=C(Nc1cccc(C(F)(F)F)c1)N1CCC(CN2CCCCCC2)CC1	inactive

In another format: entries from further up.
SMILES | Potency
O=C(Cc1ccc(Cl)cc1)Nc1ccc2oc(-c3ccncc3)nc2c1 | inconclusive: 1.46 µM [falling, full curve]
COc1ccc(-c2noc(CCC(=O)NCc3cccnc3)n2)cc1OC | inconclusive: 6.51 µM [activator, single point]
CC(NC(=O)C(C)(C)C)C(c1cccs1)N1CCOCC1 (stereo unspecified) | inactive

Remaining list, next part

SMILES	Potency
Cc1nc(N/N=C/c2ccc(O)cc2)c2cnn(-c3ccccc3)c2n1	inconclusive: 29.1 µM [falling, single point]
Cc1ccc(C(=O)C(C(=O)/C=C/c2ccccc2)=C2SCCCS2)cc1	active: 25.9 µM
CC1=Nc2ccccc2/C1=C/c1sc(=N)n(-c2nccs2)c1O	inconclusive: 25.9 µM [falling, single point]
CCOc1ccc(NC(=O)c2ccc3c(SCC(=O)O)c4c(nc3c2)CCC4)cc1	inactive
COc1ccc(OC)c(C2c3c(-c4ccc(Br)cc4)n[nH]c3C(=O)N2c2ccc(Cl)cc2)c1 (stereo unspecified)	inconclusive: 29.1 µM [falling, single point]
CCCCCn1c(NC(=O)c2ccco2)c(S(=O)(=O)c2ccc(C)cc2)c2nc3ccccc3nc21	inconclusive: 32.6 µM [falling, single point]
CCOC(=O)c1sc(SC)nc1N	inconclusive: 18.4 µM [activator, partial curve, poor fit]
CCOC(=O)c1c(Nc2cccc(C(=O)OC)c2)nnc(-c2ccccc2)c1-c1ccccc1	inconclusive: 20.6 µM [falling, single point]
CCOCCn1c(N2CCN(c3ccc(OC)cc3)CC2)nc2c1c(=O)[nH]c(=O)n2C	inconclusive: 9.2 µM [falling, partial curve, poor fit]
COc1ccc(S(=O)(=O)N(C)c2nc3ccccc3n3c(CC(C)C)nnc23)cc1	inconclusive: 29.1 µM [falling, single point]
CN1CCc2c(sc3c2C(=O)NC(c2ccccn2)N3)C1 (stereo unspecified)	inconclusive: 0.461 µM [activator, full curve, poor fit]
CCOc1ccccc1-c1noc(CSc2nnc(-c3ccccc3)n2-c2cccc(C)c2)n1	inconclusive: 29.1 µM [falling, single point]
O=C(Nc1ccccn1)C(=O)Nc1ccccn1	inconclusive: 32.6 µM [falling, single point]
Nc1ncnc2c(C3OC(CO)C(O)C3O)scc12 (stereo unspecified)	inconclusive: 0.731 µM [falling, partial curve, poor fit]
C=CCn1c(SCc2c(C)noc2C)nc2sc3c(c2c1=O)CCC(C)C3 (stereo unspecified)	inconclusive: 7.31 µM [falling, partial curve, poor fit]
O=[N+]([O-])c1ccc(CSc2nnc(Cc3ccccc3)o2)cc1	inactive
O=C(Nc1nc(-c2cccs2)cs1)c1ccco1	inconclusive: 6.51 µM [activator, partial curve]
CN=c1scc(C)n1/N=C/c1ccc(O)cc1	inconclusive: 16.4 µM [falling, single point]
CC(=O)NC(c1ccccc1)c1cc([N+](=O)[O-])c2cccnc2c1O (stereo unspecified)	active: 14.6 µM
COc1ccc(CNC(=O)CN(C(=O)c2csnn2)c2ccc3c(c2)OCCO3)cc1	inconclusive: 20.6 µM [activator, single point]
Cc1ccc(C)c(NC(=S)Nc2cccc3cnccc23)c1	inconclusive: 29.1 µM [falling, single point]
C/C(=N/NC(=O)c1ccco1)c1ccc(Br)s1	inconclusive: 7.31 µM [activator, partial curve]

SMILES	Potency
c1ccc(COc2ccc(-c3csnn3)cc2)cc1	inconclusive: 1.46 µM [activator, single point]
Clc1c(CSc2nc3ccccc3o2)nc2sccn12	inconclusive: 5.8 µM [activator, partial curve, poor fit]
Cc1cccc(/C(N)=N/OC(=O)c2ccncc2)c1	inconclusive: 8.2 µM [activator, partial curve, poor fit]
CCc1ccc(Nc2n[n+](-c3ccccc3)c(-c3c(Cl)cccc3Cl)s2)cc1	inconclusive: 25.9 µM [falling, single point]
O=C(NC12CC3CC(CC(C3)C1)C2)c1ccc(-c2cccc(Cl)c2)o1	inconclusive: 10.3 µM [activator, partial curve]
CCCC(=O)n1nc(-c2ccc(C)cc2)nc1NCc1ccco1	inconclusive: 3.66 µM [activator, full curve]
CC1Cc2ccccc2N1C(=O)COC(=O)c1c2c(nc3ccccc13)CCCCC2 (stereo unspecified)	inconclusive: 29.1 µM [falling, single point]
COC(=O)C1SCCN1S(=O)(=O)c1ccc(Cl)cc1 (stereo unspecified)	inactive
COc1cc(-c2c(C#N)c(N)nc3c2c(C)nn3-c2ccc(C)c(C)c2)cc(OC)c1OC	inconclusive: 16.4 µM [falling, single point]
CC1CCN(c2cc3c(cc2F)c(=O)c(S(=O)(=O)c2cccc(Cl)c2)cn3Cc2ccccc2)CC1	inconclusive: 16.4 µM [activator, single point]
COc1ccccc1CNS(=O)(=O)c1ccc(-c2cc(C(F)(F)F)on2)s1	inconclusive: 29.1 µM [falling, single point]
COc1ccccc1NC(=O)Nc1nc2ccc(S(N)(=O)=O)cc2s1	inconclusive: 3.66 µM [activator, full curve]
O=C(N/N=C/c1cccc(O)c1)c1ccc2c(c1)OCCO2	active: 0.411 µM
Cc1cccc(-n2c(SCC(N)=O)nc3c(c2=O)C2(CCCC2)Cc2ccccc2-3)c1	inconclusive: 29.1 µM [falling, single point]
CCc1ccccc1NC(=S)N1N=CCC1c1ccccc1 (stereo unspecified)	inconclusive: 9.2 µM [activator, partial curve]
COc1cc2c(cc1OC)CN(Cc1cc(=O)n3c(-c4ccccc4)csc3n1)CC2	inconclusive: 32.6 µM [falling, single point]
N#Cc1ccc(OC(=O)c2cc(-c3ccc(Cl)cc3)on2)cc1	inactive
CCC(C(=O)NCc1ccco1)N(C(=O)CNS(=O)(=O)c1ccc(C)cc1)c1ccccc1OC (stereo unspecified)	inactive
Cc1ccc(Cl)c(N/C=C/C(=O)c2ccccc2)c1	inconclusive: 6.51 µM [activator, partial curve]
COc1ccc(/C=N/Nc2nc(-c3cccc(S(=O)(=O)N4CCCC4)c3)cs2)cc1OC	inconclusive: 16.4 µM [falling, single point]
CC1CCCN(CCCNC(=O)C2CCN(S(=O)(=O)N3CCC4(CC3)OCCO4)CC2)C1 (stereo unspecified)	inconclusive: 32.6 µM [falling, single point]
Cc1ccc(NC(=O)CN(C)S(=O)(=O)c2ccc3c(c2)n(C)c(=O)c(=O)n3C)c(C)c1	inconclusive: 23.1 µM [activator, partial curve, poor fit]
